# Among all 320,000 compounds or so, about 22,000 (6.9%) were called active. Inconclusive results, whose numbers are uncertain, are shown with a selection of clear calls. Calls come from the whole dose curve; as a rule, active = well fitted inhibition curve with a large enough effect; inconclusive = small, poorly fitted or top-dose-only effect, or another doubt; inactive = no such curve, though single readings can be large or run the other way. Potencies of inconclusive entries are doubtful fits and often do not repeat.
# Assay: Primary qHTS for delayed death inhibitors of the malarial parasite plastid, 96 hour incubation
# Conditions: P. falciparum luciferase reporter growth; series mostly up to 28.7 µM; activity change, negative = inhibition: at the top concentration
# Summary of the method: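 Compounds incubated with erythrocytes infected by luciferase-expressing P. falciparum (2% hematocrit, 0.05% parasitemia final) for 96 hours, 37 C in 5% CO2. Growth inhibition scored as decreased luciferase luminescence.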
# % is set by controls: 0 for no effect and ±100 for the full control effect; potency is the fitted concentration of half-maximal effect.
Structure (SMILES),"activity change, negative = inhibition",Potency
CN(C)c1ccc(/C=C/c2cccc[n+]2[O-])cc1,inactive: 249%,
O=C(CCS(=O)(=O)c1cccs1)N1CCN(c2ccc(F)cc2)CC1,inactive: 16.4%,
O=[N+]([O-])c1ccc(-c2cnc(SC(c3ccccc3)c3ccccc3)[nH]2)cc1,,active: 7.38 µM
COC(=O)c1ccccc1OCCCOc1ccc(C=O)cc1OC,inactive: 139%,
CCOCC(=O)Nc1nnc(COc2ccc(Cl)cc2)s1,,"inconclusive: 16.5 µM [inhibitor, single point]"
Cn1cnnc1SCC(=O)NN(c1ccccc1)c1ccccc1,inactive: 30.9%,
Cc1ccc(OCCCC(=O)Nc2ccc(Cl)c(S(=O)(=O)N3CCOCC3)c2)cc1,,active: 10.4 µM
CC1CCN(CC(O)COCCOc2ccc(Br)cc2)CC1 (configuration not stated),,"inconclusive: 10.4 µM [inhibitor, single point]"
COc1cccc(OC)c1C(=O)Nc1ccc2c(c1)CCCN2S(=O)(=O)c1ccc(C)cc1,,"inconclusive: 18.5 µM [inhibitor, single point]"
COc1cccc(-n2nnc3c(=O)n(CC(=O)Nc4ccccc4C)cnc32)c1,inactive: -10%,
CC(C)NC(=O)COc1ccccc1C#N,,"inconclusive: 13.1 µM [inhibitor, single point]"
CCOC(=O)c1ccc(NC(=S)NNC(=O)C2(C)CC2(Cl)Cl)cc1 (configuration not stated),,"inconclusive: 11.7 µM [inhibitor, partial curve, poor fit]"
COc1ccc(NC(=O)CCn2ccnc2)c(OC)c1,,"inconclusive: 11.7 µM [inhibitor, single point]"
Clc1ccccc1Cn1nnc2c(Nc3ccccc3)ncnc21,,"inconclusive: 10.4 µM [inhibitor, partial curve, poor fit]"
NC(=O)CSc1nnc(-c2ccc(S(=O)(=O)N3CCCCC3)cc2)n1-c1ccccc1,,"inconclusive: 0.147 µM [inhibitor, full curve, poor fit]"
Cc1cccc(NC(=O)Cn2c(=O)oc3ccccc32)c1,inactive: 342%,
O=C(COC(=O)c1ccco1)c1ccccc1,inactive: 15.3%,
O=C(Cn1c(=O)c(=O)n(Cc2ccccc2)c2ccc(Cl)cc21)Nc1ccc(F)cc1F,,"inconclusive: 0.294 µM [inhibitor, full curve, poor fit]"
COc1cccc(/C(C#N)=C/c2c(-c3ccc(Cl)cc3)nc3c(C)cccn23)c1,,"inconclusive: 0.37 µM [inhibitor, full curve, poor fit]"
CCn1c(Cc2ccccc2)nnc1SCC(=O)Nc1cc(C)on1,,active: 8.28 µM
NNC(=O)COc1ncn(-c2ccccc2)n1,,"inconclusive: 4.15 µM [inhibitor, partial curve]"
Cc1ccc([N+](=O)[O-])cc1N/C=C1\CCc2ccccc2C1=O,,"inconclusive: 1.47 µM [inhibitor, full curve]"
Cc1cccc(-n2ncc(C(=O)NC3CCCC3)c2C2CCN(C(=O)OC(C)(C)C)CC2)c1,,"inconclusive: 14.7 µM [inhibitor, single point]"
O=C(NC1CCCC1)c1cccc(S(=O)(=O)N2CCOCC2)c1,,"inconclusive: 18.5 µM [inhibitor, single point]"

Structure (SMILES),"activity change, negative = inhibition",Potency
COc1ccc(-c2ccc([C@H]3[C@@H]4C=CCC[C@@]4(C)C(=O)N3Cc3ccccc3)c(F)c2)cc1,,"inconclusive: 13.1 µM [inhibitor, single point]"
COc1cc(OC)cc(C(=O)N[C@H](C(=O)Nc2nc3ccc(S(C)(=O)=O)cc3s2)C(C)C)c1,,"inconclusive: 1.04 µM [inhibitor, partial curve, poor fit]"
Cc1cccc(NC(=S)N(CCCN2CCOCC2)C(C)c2cc3ccccc3o2)c1 (configuration not stated),inactive: 56.4%,
O=c1n(Cc2ccccc2)c2cc(Cl)cnc2n1Cc1ccccc1,,"inconclusive: 13.1 µM [inhibitor, single point]"
CC1CN(C(=O)/C=C/c2ccccc2[N+](=O)[O-])CC(C)O1 (configuration not stated),,"inconclusive: 11.7 µM [inhibitor, partial curve]"
CCOC(=O)C(C)Sc1nc(-c2ccccn2)ncc1OC (configuration not stated),,active: 3.29 µM
Cc1ccc(OCC(=O)Nc2cnn(CCCC(=O)O)c2)c([N+](=O)[O-])c1,inactive: 49.7%,
COc1ccc2c(c1)CCc1cn[nH]c1-2,inactive: 21.9%,
COc1ccc(CC(=O)NC2CC(C)(C)NC(C)(C)C2)cc1,,"inconclusive: 18.5 µM [inhibitor, single point]"
CCCCC/C=C/C1=CC(=O)C[C@H](c2ccc(OC)c(OC)c2)C1,,"inconclusive: 16.5 µM [inhibitor, single point]"
O=C(NCC1CCCO1)C1CCN(C2CCN(C(=O)CC3CCCC3)CC2)CC1 (configuration not stated),,"inconclusive: 8.28 µM [inhibitor, partial curve]"
Cc1ccc2cc(C3CC(c4cccs4)=NN3S(C)(=O)=O)c(Cl)nc2c1 (configuration not stated),,"inconclusive: 13.1 µM [inhibitor, partial curve, poor fit]"
CCNc1nc(NCC)n2c(SCC(=O)Nc3ccc(C)c(C)c3)nnc2n1,inactive: -32.9%,
COc1ccc(C(C)=O)cc1CS(=O)(=O)CC(=O)NCCc1c[nH]c2ccccc12,,active: 10.4 µM
CCOC(=O)C1CCN(C(=O)c2cc3c(-c4ccc(OC)c(OC)c4)nn(C)c3s2)CC1,,"inconclusive: 6.57 µM [inhibitor, partial curve, poor fit]"
CC(=O)n1cc(/C=C2/N=C(c3ccccc3)OC2=O)c2ccccc21,,"inconclusive: 11.7 µM [inhibitor, single point]"
COC(=O)[C@]1(CC(C)C)N[C@H](c2ccc(-c3ccc(OC)cc3)cc2)[C@@H]2C(=O)N(C)C(=O)[C@@H]21,,"inconclusive: 16.5 µM [inhibitor, single point]"
COc1cccc(/C=N/N2C(=O)CSC2=S)c1O,,"inconclusive: 13.1 µM [inhibitor, partial curve]"
CCOC(=O)c1c(-c2ccc(C)cc2C)csc1NC(=O)CSc1nnnn1C,inactive: 8.94%,
Cn1c(=O)oc2cc(S(=O)(=O)N3CCCC(C(=O)Nc4ccc5c(c4)OCCO5)C3)ccc21 (configuration not stated),,"inconclusive: 18.5 µM [inhibitor, partial curve, poor fit]"
Nn1c(COc2ccccc2F)nnc1SCC(=O)NC1CC1,inactive: 43.1%,
COc1ccc(C2C=C(C34CC5CC(CC(C5)C3)C4)NC(=S)N2)cc1OC (configuration not stated),,active: 9.28 µM
FC(F)(F)c1ccc(C2[C@H]3CN(Cc4cccnc4)[C@H](c4ccccc4)C34CC2(c2ccccc2)C4)cc1 (some centres not stated),,active: 2.33 µM
O=C(CSc1nnc(CNC(=O)c2ccccc2)o1)Nc1ccc2c(c1)OCCO2,inactive: 3.99%,

# Looked up above.
# Entry of `Cc1cccc(NC(=S)N(CCCN2CCOCC2)C(C)c2cc3ccccc3o2)c1` (configuration not stated) under activity change, negative = inhibition: inactive: 56.4%
# Entry of `CCOC(=O)C(C)Sc1nc(-c2ccccn2)ncc1OC` (configuration not stated) under Potency: active: 3.29 µM
# Entry of `COC(=O)[C@]1(CC(C)C)N[C@H](c2ccc(-c3ccc(OC)cc3)cc2)[C@@H]2C(=O)N(C)C(=O)[C@@H]21` under Potency: inconclusive: 16.5 µM [inhibitor, single point]

# (further entries)

Structure (SMILES),"activity change, negative = inhibition",Potency
CC(NC(=O)c1cccc(OC2CCN(C3CCN(C)CC3)CC2)c1)c1ccccc1 (configuration not stated),,"inconclusive: 18.5 µM [inhibitor, single point]"
Cc1ccc(Sc2nnc(Cc3ccccc3)c3ccccc23)cc1,,"inconclusive: 18.5 µM [inhibitor, single point]"
CCc1ccc(NC(=O)C(=O)NCC2CCCN2S(=O)(=O)c2cccs2)cc1 (configuration not stated),inactive: -25.6%,
Cc1cc(O)c(NC(=O)c2cccc([N+](=O)[O-])c2)cc1C,inactive: 48.4%,
COc1cccc(CNc2ccccn2)c1O,inactive: 61.8%,
COc1ccc(CNc2ncc(-c3ccccc3)n2C)c(OC)c1OC,,"inconclusive: 18.5 µM [inhibitor, single point]"
CCc1nc(CNC(=O)C2CCC(=O)N(Cc3ccccc3F)C2)no1 (configuration not stated),inactive: 5.13%,
COc1ccc(N(CC(=O)NCC2CCCO2)C(=O)CCC(=O)Nc2cc(C)on2)cc1OC (configuration not stated),inactive: -24.2%,
Cc1ccc(Nc2nc(N)c([N+](=O)[O-])c(N3CCC(C)CC3)n2)cc1C,,"inconclusive: 13.1 µM [inhibitor, single point]"
NS(=O)(=O)c1cccc(NC(=O)CSc2nn(-c3ccccc3)c(=S)s2)c1,,active: 1.17 µM
O=C(CSc1nnc(NC(=O)C2CCC2)s1)Nc1ccccc1F,inactive: 7.5%,
CC(=O)Nc1ccc(NC(=O)C(C)OC(=O)c2ccc(-n3cnnn3)cc2)cc1 (configuration not stated),,"inconclusive: 10.4 µM [inhibitor, single point]"
O=C(NCC1CCCO1)c1ccc(S(=O)(=O)N2CCC(c3nc4ccc(Cl)cc4[nH]3)CC2)cc1 (configuration not stated),inactive: -26.3%,
Cc1cccc(C)c1NC(=S)NN1CCN(C)CC1,inactive: 2.48%,
O=c1[nH]c(N/N=C/c2ccc(O)cc2)nc2ccccc12,inactive: -16.7%,
COc1ccc(/C=C(\NC(=O)c2ccc(C)cc2)C(=O)N2CCCCC2)cc1,,"inconclusive: 9.28 µM [inhibitor, partial curve]"
COc1ccc(Br)cc1C1CC(=O)N2CN(C)CSC2=C1C#N (configuration not stated),,"inconclusive: 13.1 µM [inhibitor, partial curve, poor fit]"
CCN(CC)c1ccc(/C=N/NC(=O)c2nnn(-c3nonc3N)c2C(C)C)c(O)c1,,active: 7.38 µM
O=C1c2ccccc2C(Nc2cccnc2)N1Cc1ccccc1 (configuration not stated),,active: 10.4 µM
COc1ccc(Cc2nnc(NC(=O)c3ccc(OC)cc3OC)s2)cc1,,"inconclusive: 6.57 µM [inhibitor, single point]"
Cc1[nH]c2ccccc2c1C(=O)CSc1cccc[n+]1[O-],,"inconclusive: 9.28 µM [inhibitor, partial curve]"
Cc1ccc(C)c(NC(=O)[C@@H]2CCCN2S(=O)(=O)c2ccccc2F)c1,,"inconclusive: 13.1 µM [inhibitor, single point]"
COC(=O)c1ccc(COC(=O)c2cc3ccccc3oc2=O)cc1,,"inconclusive: 18.5 µM [inhibitor, single point]"
Cc1ccc2oc(=O)c3cc(C(=O)NCc4ccco4)sc3c2c1,,active: 9.28 µM

# Source: PubChem BioAssay AID504834 (National Center for Advancing Translational Sciences (NCATS), 2011)
